Binding data for three molecules are collected here from article PMC8786740.

No constants are given. Whether binding was seen depends on the method and setting. In cells and extracts the contact can be indirect. Here binding means that the protein was enriched with, or labelled near, the bait; the list need not be complete. Where a sequence is shown, tags or fusion partners need not be part of it.

T1: BRI1-ASSOCIATED RECEPTOR KINASE 1 (BAK1) fused to GFP, from the BAK1pro:BAK1-GFP/bak1-4/iGLV6 line (Arabidopsis thaliana) (UniProt Q94F62)
T1 sequence: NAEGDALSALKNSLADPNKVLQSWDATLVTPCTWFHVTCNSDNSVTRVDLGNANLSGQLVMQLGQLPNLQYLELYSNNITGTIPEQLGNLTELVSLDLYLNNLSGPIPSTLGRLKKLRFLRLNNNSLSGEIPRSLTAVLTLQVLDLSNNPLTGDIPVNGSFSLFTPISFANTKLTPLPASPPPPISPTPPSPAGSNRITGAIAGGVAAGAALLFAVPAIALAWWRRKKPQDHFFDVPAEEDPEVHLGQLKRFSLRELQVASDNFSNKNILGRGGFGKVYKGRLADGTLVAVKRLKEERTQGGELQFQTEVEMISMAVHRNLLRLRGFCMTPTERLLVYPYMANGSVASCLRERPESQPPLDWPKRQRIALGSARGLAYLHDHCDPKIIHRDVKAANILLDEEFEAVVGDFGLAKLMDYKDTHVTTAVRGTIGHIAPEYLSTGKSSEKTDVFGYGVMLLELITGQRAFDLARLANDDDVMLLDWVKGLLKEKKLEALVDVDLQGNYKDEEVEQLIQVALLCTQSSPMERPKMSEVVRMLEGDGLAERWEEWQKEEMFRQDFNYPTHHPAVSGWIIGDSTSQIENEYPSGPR

B1: PEP1 RECEPTOR 1 (PEPR1), endogenous (receptor, UniProt Q9SSL9 29-1123)
chain: LNSDGLTLLSLLKHLDRVPPQVTSTWKINASEATPCNWFGITCDDSKNVASLNFTRSRVSGQLGPEIGELKSLQILDLSTNNFSGTIPSTLGNCTKLATLDLSENGFSDKIPDTLDSLKRLEVLYLYINFLTGELPESLFRIPKLQVLYLDYNNLTGPIPQSIGDAKELVELSMYANQFSGNIPESIGNSSSLQILYLHRNKLVGSLPESLNLLGNLTTLFVGNNSLQGPVRFGSPNCKNLLTLDLSYNEFEGGVPPALGNCSSLDALVIVSGNLSGTIPSSLGMLKNLTILNLSENRLSGSIPAELGNCSSLNLLKLNDNQLVGGIPSALGKLRKLESLELFENRFSGEIPIEIWKSQSLTQLLVYQNNLTGELPVEMTEMKKLKIATLFNNSFYGAIPPGLGVNSSLEEVDFIGNKLTGEIPPNLCHGRKLRILNLGSNLLHGTIPASIGHCKTIRRFILRENNLSGLLPEFSQDHSLSFLDFNSNNFEGPIPGSLGSCKNLSSINLSRNRFTGQIPPQLGNLQNLGYMNLSRNLLEGSLPAQLSNCVSLERFDVGFNSLNGSVPSNFSNWKGLTTLVLSENRFSGGIPQFLPELKKLSTLQIARNAFGGEIPSSIGLIEDLIYDLDLSGNGLTGEIPAKLGDLIKLTRLNISNNNLTGSLSVLKGLTSLLHVDVSNNQFTGPIPDNLEGQLLSEPSSFSGNPNLCIPHSFSASNNSRSALKYCKDQSKSRKSGLSTWQIVLIAVLSSLLVLVVVLALVFICLRRRKGRPEKDAYVFTQEEGPSLLLNKVLAATDNLNEKYTIGRGAHGIVYRASLGSGKVYAVKRLVFASHIRANQSMMREIDTIGKVRHRNLIKLEGFWLRKDDGLMLYRYMPKGSLYDVLHGVSPKENVLDWSARYNVALGVAHGLAYLHYDCHPPIVHRDIKPENILMDSDLEPHIGDFGLARLLDDSTVSTATVTGTTGYIAPENAFKTVRGRESDVYSYGVVLLELVTRKRAVDKSFPESTDIVSWVRSALSSSNNNVEDMVTTIVDPILVDELLDSSLREQVMQVTELALSCTQQDPAMRPTMRDAVKLLEDVKHLARSCSSDSVR
B2: PXY-CORRELATED 3 (PXC3), endogenous (receptor, UniProt O22938 24-890)
chain: QLSDEATLVAINRELGVPGWSSNGTDYCTWVGLKCGVNNSFVEMLDLSGLQLRGNVTLISDLRSLKHLDLSGNNFNGRIPTSFGNLSELEFLDLSLNRFVGAIPVEFGKLRGLRAFNISNNLLVGEIPDELKVLERLEEFQVSGNGLNGSIPHWVGNLSSLRVFTAYENDLVGEIPNGLGLVSELELLNLHSNQLEGKIPKGIFEKGKLKVLVLTQNRLTGELPEAVGICSGLSSIRIGNNELVGVIPRTIGNISGLTYFEADKNNLSGEIVAEFSKCSNLTLLNLAANGFAGTIPTELGQLINLQELILSGNSLFGEIPKSFLGSGNLNKLDLSNNRLNGTIPKELCSMPRLQYLLLDQNSIRGDIPHEIGNCVKLLQLQLGRNYLTGTIPPEIGRMRNLQIALNLSFNHLHGSLPPELGKLDKLVSLDVSNNLLTGSIPPLLKGMMSLIEVNFSNNLLNGPVPVFVPFQKSPNSSFLGNKELCGAPLSSSCGYSEDLDHLRYNHRVSYRIVLAVIGSGVAVFVSVTVVVLLFMMREKQEKAAAKNVDVEENVEDEQPAIIAGNVFLENLKQGIDLDAVVKATMKESNKLSTGTFSSVYKAVMPSGMIVSVKKLKSMDRAISHHQNKMIRELERLSKLCHDHLVRPIGFVIYEDVALLLHQHLPNGNLTQLIHESTKKPEYQPDWPMRLSIAVGAAEGLAFLHQVAIIHLDVSSSNVLLDSGYKAVLGEIEISKLLDPSRGTASISSVAGSFGYIPPEYAYTMQVTAPGNVYSYGVVLLEILTSRAPVEEEFGEGVDLVKWVHGASARGETPEQILDAKLSTVSFAWRREMLAALKVALLCTDITPAKRPKMKKVVEMLQEVKQIK
B3: BAK1-… RECEPTOR-LIKE KINASE 2 (BIR2), endogenous (receptor, UniProt Q9LSI9 29-605)
chain: ADEDDIRCLRGLKASLTDPQNALKSWNFDNTTLGFLCNFVGVSCWNNQENRVINLELRDMGLSGKIPDSLQYCASLQKLDLSSNRLSGNIPTELCNWLPFLVSLDLSNNELNGEIPPDLAKCSFVNSLVLSDNRLSGQIPVQFSALGRLGRFSVANNDLSGRIPVFFSSPSYSSDDFSGNKGLCGRPLSSSCGGLSKKNLGIIIAAGVFGAAASMLLAFGIWWYYHLKWTRRRRSGLTEVGVSGLAQRLRSHKLTQVSLFQKPLVKVKLGDLMAATNNFNSENIIVSTRTGTTYKALLPDGSALAVKHLSTCKLGEREFRYEMNQLWELRHSNLAPLLGFCVVEEEKFLVYKYMSNGTLHSLLDSNRGELDWSTRFRIGLGAARGLAWLHHGCRPPILHQNICSSVILIDEDFDARIIDSGLARLMVPSDNNESSFMTGDLGEFGYVAPEYSTTMLASLKGDVYGLGVVLLELATGLKAVGGEGFKGSLVDWVKQLESSGRIAETFDENIRGKGHDEEISKFVEIALNCVSSRPKERWSMFQAYQSLKAIAEKQGYSFSEQDDDFPLIFDTQENEKV

The target in this assay is T1, BRI1-ASSOCIATED RECEPTOR KINASE 1 (BAK1) fused to GFP, from the BAK1pro:BAK1-GFP/bak1-4/iGLV6 line (Arabidopsis thaliana). Briefly: affinity purification with mass spectrometry; BAK1-GFP as bait on anti-GFP uMACS MicroBeads; microsomal extracts (1% Triton X-100) of formaldehyde cross-linked Arabidopsis seedlings, mock or 2 uM estradiol (GLV6 induction) for 24 h; on-bead digestion, LC-MS/MS.
On to B1, for which the binding result is “binds”. Consider B2, for which the binding entry was “binds”. Under B3 stands “binds”.
